Source: the supplement of paper PMC7666118
This is one part of the list.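 Rule for the calls: active = dose-dependent thermal stabilisation significant by F-test of dose-response against flat model at 10% FDR; inactive = not significant.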

Protein sequences, listed by entry. Tags and fused reporters are not part of them. Lines headed by an entry give the natural chain unless they say otherwise; changes in a name come on top.
UniProt Q9HAS0: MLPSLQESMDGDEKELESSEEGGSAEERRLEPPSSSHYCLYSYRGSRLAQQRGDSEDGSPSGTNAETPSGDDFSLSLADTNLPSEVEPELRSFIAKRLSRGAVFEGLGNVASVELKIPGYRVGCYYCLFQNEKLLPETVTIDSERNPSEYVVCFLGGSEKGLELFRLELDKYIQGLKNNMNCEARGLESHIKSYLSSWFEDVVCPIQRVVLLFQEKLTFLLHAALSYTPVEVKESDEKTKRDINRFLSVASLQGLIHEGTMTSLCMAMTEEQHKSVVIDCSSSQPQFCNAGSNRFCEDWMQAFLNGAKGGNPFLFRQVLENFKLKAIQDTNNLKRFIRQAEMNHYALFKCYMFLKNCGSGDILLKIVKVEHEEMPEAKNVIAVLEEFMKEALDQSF
UniProt P49589: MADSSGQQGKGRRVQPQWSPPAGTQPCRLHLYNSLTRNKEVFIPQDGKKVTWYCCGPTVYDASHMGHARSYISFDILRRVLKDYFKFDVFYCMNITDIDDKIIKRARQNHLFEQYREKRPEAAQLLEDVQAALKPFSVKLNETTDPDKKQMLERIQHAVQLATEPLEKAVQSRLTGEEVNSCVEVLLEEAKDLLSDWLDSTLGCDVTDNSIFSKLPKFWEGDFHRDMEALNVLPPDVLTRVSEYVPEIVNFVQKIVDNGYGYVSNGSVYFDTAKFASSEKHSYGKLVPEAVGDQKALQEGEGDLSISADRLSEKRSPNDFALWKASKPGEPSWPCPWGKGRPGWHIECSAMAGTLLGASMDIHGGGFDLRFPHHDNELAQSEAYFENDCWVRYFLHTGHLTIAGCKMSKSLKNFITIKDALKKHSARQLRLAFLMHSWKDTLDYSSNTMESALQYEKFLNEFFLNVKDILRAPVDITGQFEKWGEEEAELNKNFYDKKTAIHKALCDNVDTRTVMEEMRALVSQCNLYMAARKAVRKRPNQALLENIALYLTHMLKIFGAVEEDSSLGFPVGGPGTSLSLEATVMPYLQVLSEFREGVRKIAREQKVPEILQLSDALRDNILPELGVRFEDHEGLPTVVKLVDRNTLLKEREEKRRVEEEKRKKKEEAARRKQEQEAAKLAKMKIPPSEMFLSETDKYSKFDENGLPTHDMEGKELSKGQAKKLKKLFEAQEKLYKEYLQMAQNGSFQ
UniProt P46736, whole entry: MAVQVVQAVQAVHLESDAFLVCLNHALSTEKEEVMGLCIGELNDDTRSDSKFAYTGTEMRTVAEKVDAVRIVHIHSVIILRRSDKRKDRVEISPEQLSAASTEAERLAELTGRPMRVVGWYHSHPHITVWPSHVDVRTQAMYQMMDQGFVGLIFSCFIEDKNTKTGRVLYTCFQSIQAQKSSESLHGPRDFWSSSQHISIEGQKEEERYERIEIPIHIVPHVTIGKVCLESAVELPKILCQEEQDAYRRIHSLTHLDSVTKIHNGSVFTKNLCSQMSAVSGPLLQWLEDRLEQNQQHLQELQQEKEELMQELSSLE
UniProt Q8N0T1: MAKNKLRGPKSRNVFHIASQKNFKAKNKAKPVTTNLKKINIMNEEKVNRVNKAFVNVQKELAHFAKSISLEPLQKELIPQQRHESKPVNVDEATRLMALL
UniProt Q96B23: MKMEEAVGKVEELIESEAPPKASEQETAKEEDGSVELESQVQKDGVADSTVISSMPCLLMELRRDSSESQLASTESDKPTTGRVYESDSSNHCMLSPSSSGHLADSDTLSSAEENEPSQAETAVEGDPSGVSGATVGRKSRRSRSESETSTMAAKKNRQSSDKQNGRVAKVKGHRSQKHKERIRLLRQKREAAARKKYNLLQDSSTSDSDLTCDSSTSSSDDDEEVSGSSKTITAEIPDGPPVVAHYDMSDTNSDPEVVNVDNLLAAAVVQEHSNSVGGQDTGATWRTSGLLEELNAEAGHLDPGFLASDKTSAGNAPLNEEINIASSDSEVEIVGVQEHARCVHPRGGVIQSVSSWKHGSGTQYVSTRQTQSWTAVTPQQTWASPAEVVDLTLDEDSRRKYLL
UniProt P06576, whole entry: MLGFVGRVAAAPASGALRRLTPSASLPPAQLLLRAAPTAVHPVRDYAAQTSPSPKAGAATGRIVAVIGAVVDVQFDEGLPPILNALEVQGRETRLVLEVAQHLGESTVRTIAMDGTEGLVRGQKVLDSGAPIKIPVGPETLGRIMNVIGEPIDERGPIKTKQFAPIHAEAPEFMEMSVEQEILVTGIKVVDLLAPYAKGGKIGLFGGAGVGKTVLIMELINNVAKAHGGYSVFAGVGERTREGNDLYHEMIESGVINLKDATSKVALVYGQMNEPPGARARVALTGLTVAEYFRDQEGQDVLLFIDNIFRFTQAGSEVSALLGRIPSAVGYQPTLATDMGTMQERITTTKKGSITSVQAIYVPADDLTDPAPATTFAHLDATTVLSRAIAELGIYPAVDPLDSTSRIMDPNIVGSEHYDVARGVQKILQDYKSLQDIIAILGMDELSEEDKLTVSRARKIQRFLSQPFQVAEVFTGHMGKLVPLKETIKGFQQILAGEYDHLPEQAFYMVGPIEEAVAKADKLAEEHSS
UniProt O95352: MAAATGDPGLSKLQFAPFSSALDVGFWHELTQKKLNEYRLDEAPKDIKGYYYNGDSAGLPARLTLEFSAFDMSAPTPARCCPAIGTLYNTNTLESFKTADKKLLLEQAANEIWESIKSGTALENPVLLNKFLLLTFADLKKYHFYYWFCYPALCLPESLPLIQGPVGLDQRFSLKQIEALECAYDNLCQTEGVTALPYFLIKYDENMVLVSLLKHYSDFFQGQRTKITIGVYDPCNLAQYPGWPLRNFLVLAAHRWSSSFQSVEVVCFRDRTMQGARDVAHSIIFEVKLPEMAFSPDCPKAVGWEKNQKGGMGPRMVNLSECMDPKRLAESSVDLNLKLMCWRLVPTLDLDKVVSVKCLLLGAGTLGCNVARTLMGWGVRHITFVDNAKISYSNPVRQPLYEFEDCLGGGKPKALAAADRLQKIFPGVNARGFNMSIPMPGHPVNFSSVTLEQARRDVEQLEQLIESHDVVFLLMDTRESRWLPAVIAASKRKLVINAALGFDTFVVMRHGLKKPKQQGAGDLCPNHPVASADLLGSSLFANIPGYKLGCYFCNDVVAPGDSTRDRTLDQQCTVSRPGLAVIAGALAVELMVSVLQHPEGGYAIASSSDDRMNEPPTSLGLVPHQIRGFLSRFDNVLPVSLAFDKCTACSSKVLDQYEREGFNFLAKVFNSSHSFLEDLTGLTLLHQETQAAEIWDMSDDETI
UniProt Q96GS4: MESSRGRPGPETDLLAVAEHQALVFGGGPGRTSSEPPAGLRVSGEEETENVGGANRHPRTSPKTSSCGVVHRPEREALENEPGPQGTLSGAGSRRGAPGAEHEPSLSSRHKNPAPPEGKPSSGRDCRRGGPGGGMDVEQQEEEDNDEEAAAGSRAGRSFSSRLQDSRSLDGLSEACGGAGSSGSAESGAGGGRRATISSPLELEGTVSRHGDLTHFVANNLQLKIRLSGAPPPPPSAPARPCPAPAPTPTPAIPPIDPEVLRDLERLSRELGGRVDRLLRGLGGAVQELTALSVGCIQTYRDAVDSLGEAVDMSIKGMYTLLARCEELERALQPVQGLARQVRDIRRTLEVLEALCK

compound: Nc1nc2c(ncn2[C@@H]2O[C@H](COP(=O)(O)OP(=O)(O)OP(=O)(O)O)[C@@H](O)[C@H]2O)c(=O)[nH]1; test: dose-dependent thermal stabilisation call (2D-TPP, DLPTP, 10% FDR) (binary (1 = stabilised)); higher = stabilised by the compound; details: system: Jurkat gel-filtered lysate; concentration range 1-500 µM

Target | dose-dependent thermal stabilisation call
C17orf75 (UniProt Q9HAS0) | inactive: 0
CARS (UniProt P49589) | inactive: 0
BRCC3 (UniProt P46736) | inactive: 0
C8orf59 (UniProt Q8N0T1) | inactive: 0
C18orf25 (UniProt Q96B23) | inactive: 0
ATP5B (UniProt P06576) | active: 1
ATG7 (UniProt O95352) | active: 1
CALM1 (UniProt P0DP23) | inactive: 0
BORCS6 (UniProt Q96GS4) | inactive: 0
